Data from patent US7179819B2, “VLA-4 inhibitor compounds” (Daiichi Pharmaceutical Co., Ltd., priority 1999, dated 2007).

Assay: Pharmacokinetic evaluation in monkey, single intravenous dosage
Conditions: single intravenous dosage (2 mg/kg), LC/MS/MS

Structure (SMILES): CC(C)NCC(O)COc1ccc(CC(N)=O)cc1 (stereo not shown) [ATENOLOL, reference compound]
- AUC (total area under the plasma concentration versus time curve): 5021 ng·h/mL
